Values from PubChem BioAssay AID1053209 (Peter MacCallum Cancer Centre, 2014)

Purpose: 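Follow-up of single siRNAs that strengthen doxorubicin killing in osteosarcoma cells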 (follow-up of hits)
Cell system: mouse primary osteosarcoma cells
Knock-down reagent: single siRNA against mouse genes, 25 nM (text also states 40 nM)
Timing: about 120 h (48 h before drug, then 72 h with drug)
Challenge: doxorubicin 100 nM (about IC30-40), added 48 h after transfection, for 72 h
Detection: 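ATP-based luminescent viability, with or without doxorubicin, relative to non-targeting control NT1, mean of two replicates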
Reading the numbers: viability with doxorubicin, vs NT1: higher = more viable cells under doxorubicin; viability ratio, doxorubicin over no drug: higher = less sensitisation to doxorubicin; viability without drug, vs NT1: higher = more viable cells without drug
Hit rule: 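Counted as active (class LC dox) if viability falls to 0.7 of NT1 or below under doxorubicin but stays within 0.7 to 1.1 without drug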
Here is one part, drawn at random, of about 1,580 reagents. Over the whole deposit, 207 (13%) are marked active. 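Rows are single siRNAs; four siRNAs per gene were tested, a gene counting as confirmed only when at least two agree.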 The numbers tell different reagents against one gene apart.

gene knocked down	reagent	combined effect class	viability with doxorubicin, vs NT1	viability ratio, doxorubicin over no drug	viability without drug, vs NT1	call
U2af1	1	low viability with and without drug	0.54	0.78	0.69	inactive
U2af1	2	low viability only with doxorubicin; normal without drug	0.47	0.65	0.72	active
U2af1	3	low viability only with doxorubicin; normal without drug	0.4	0.49	0.82	active
U2af1	4	low viability only with doxorubicin; normal without drug	0.45	0.56	0.81	active
Pten	1	high viability only without drug	1.08	0.85	1.27	inactive
Pten	2	normal viability with and without drug	0.9	0.87	1.03	inactive
Pten	3	high viability only with doxorubicin	1.12	1.06	1.06	inactive
Pten	4	high viability only without drug	1.06	0.96	1.1	inactive
Rit1	1	high viability only with doxorubicin	1.1	1.04	1.06	inactive
Rit1	2	normal viability with and without drug	1	1.02	0.98	inactive
Rit1	3	normal viability with and without drug	1.08	1.04	1.04	inactive
Rit1	4	normal viability with and without drug	1.02	1.16	0.88	inactive
Smu1	1	normal viability with and without drug	0.88	1.02	0.86	inactive
Smu1	2	normal viability with and without drug	0.94	0.9	1.04	inactive
Smu1	3	low viability only with doxorubicin; normal without drug	0.67	0.8	0.84	active
Smu1	4	low viability with and without drug	0.15	0.45	0.33	inactive
Usp39	1	normal viability with and without drug	0.89	0.95	0.94	inactive
Usp39	2	normal viability with and without drug	0.9	0.94	0.96	inactive
Usp39	3	normal viability with and without drug	0.8	1.03	0.78	inactive
Usp39	4	normal viability with and without drug	0.92	1.14	0.81	inactive
Pabpc1	1	normal viability with and without drug	1.04	1.11	0.94	inactive
Pabpc1	2	low viability with and without drug	0.55	0.81	0.68	inactive
Pabpc1	3	normal viability with and without drug	0.72	0.97	0.74	inactive
Pabpc1	4	low viability with and without drug	0.58	0.92	0.63	inactive
Reg1	1	low viability only with doxorubicin; normal without drug	0.48	0.68	0.71	active
Reg1	2	normal viability with and without drug	0.71	0.76	0.93	inactive
Reg1	3	normal viability with and without drug	0.92	0.9	1.02	inactive
Reg1	4	normal viability with and without drug	0.74	0.88	0.84	inactive
Rpl35a	1	low viability with and without drug	0.18	0.47	0.38	inactive
Rpl35a	2	low viability with and without drug	0.29	0.63	0.46	inactive
Rpl35a	3	low viability with and without drug	0.43	0.78	0.55	inactive
Rpl35a	4	low viability with and without drug	0.19	1.06	0.18	inactive
Suds3	1	normal viability with and without drug	0.82	0.91	0.9	inactive
Suds3	2	normal viability with and without drug	0.76	0.81	0.94	inactive
Suds3	3	normal viability with and without drug	0.85	0.9	0.94	inactive
Suds3	4	normal viability with and without drug	0.78	0.95	0.82	inactive
Rnf121	1	normal viability with and without drug	0.83	0.82	1.01	inactive
Rnf121	2	high viability only with doxorubicin	1.12	1.12	1	inactive
Rnf121	3	normal viability with and without drug	0.86	0.93	0.92	inactive
Rnf121	4	normal viability with and without drug	1.06	1.04	1.02	inactive
Il12rb2	1	normal viability with and without drug	1.04	1.05	0.99	inactive
Il12rb2	2	normal viability with and without drug	0.88	0.91	0.97	inactive
Il12rb2	3	normal viability with and without drug	1.08	1.17	0.92	inactive
Il12rb2	4	normal viability with and without drug	1.02	0.98	1.04	inactive
Nup188	1	low viability only with doxorubicin; normal without drug	0.56	0.63	0.89	active
Nup188	2	normal viability with and without drug	0.99	0.98	1.01	inactive
Nup188	3	normal viability with and without drug	0.72	0.88	0.82	inactive
Nup188	4	low viability with and without drug	0.48	0.76	0.63	inactive
Rbpms	1	normal viability with and without drug	1.03	0.96	1.07	inactive
Rbpms	2	normal viability with and without drug	1.01	1.05	0.96	inactive
Rbpms	3	normal viability with and without drug	0.97	1.05	0.92	inactive
Rbpms	4	normal viability with and without drug	0.94	1.01	0.93	inactive
Rpa3	1	high viability only with doxorubicin	1.12	1.08	1.04	inactive
Rpa3	2	low viability only with doxorubicin; normal without drug	0.4	0.45	0.88	active
Rpa3	3	low viability only with doxorubicin; normal without drug	0.62	0.72	0.86	active
Rpa3	4	low viability with and without drug	0.31	0.55	0.56	inactive
Rasal1	1	normal viability with and without drug	1.04	1.04	1	inactive
Rasal1	2	normal viability with and without drug	0.89	0.94	0.95	inactive
Rasal1	3	high viability only without drug	1.06	0.96	1.1	inactive
Rasal1	4	normal viability with and without drug	0.84	0.84	1	inactive

Ordered by “viability without drug, vs NT1” (high to low): some entries from above.
gene knocked down	reagent	combined effect class	viability with doxorubicin, vs NT1	viability ratio, doxorubicin over no drug	viability without drug, vs NT1	call
Pten	4	high viability only without drug	1.06	0.96	1.1	inactive
Rit1	1	high viability only with doxorubicin	1.1	1.04	1.06	inactive
Rit1	3	normal viability with and without drug	1.08	1.04	1.04	inactive
Rit1	2	normal viability with and without drug	1	1.02	0.98	inactive
